According to the supplement of paper PMC7877785:
± gives the uncertainty stated by the source. Many entries were measured with a wide error.

Test: self-splicing fitness, log relative to wild type (ln ratio); higher = more splicing; Tetrahymena group I intron in knt gene, E. coli kanamycin selection, DiMSum; sequences stand for … in CUCUCU…GGAGGGAAAAGUUAUCAGGCAUGCACCUGGUAGCUAGUCUUUAAACCAAUAGAUUGCAUCGGUUUAAAAGGCAAGACCGUCAAAUUGCGGGAAAGGGGUCAACAGCCGUUCAGUACCAAGUCUCAGGGGAAACUUUGAGAUGGCCUUGCAAAGGGUAUGGUAAUAAGCUGACGGACAUGGUCCUAACCACGCAGCCAAGUCCUAAGUCAACAGAUCUUCUGUUGAUAUGGAUGCAGUUCACAGACUAAAUGUCGGUCGGGGAAGAUGUAUUCUUCUCAUAAGAUAUAGUCGGACCUCUCCUUAAUGGGAGCUAGCGGAUGAAGUGAUGCAACACUGGAGCCGCUGGGAACUAAUUUGUAUGCGAAAGUAUAUUGAUUAGUUUUGGAGUACUCGUGGUCG
Summary of the method: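 DiMSum derived fitness as the error-weighted combination of fold changes across replicates, kanamycin versus no kanamycin, normalised to wild type. E. coli BL21(DE3) held the library, which randomised all eight P1ex-region intron nucleotides within the knt kanamycin-resistance gene on pET-22b(+). Six replicate transformations grew overnight at 37°C or 30°C on LB agar with or without 25 μg/mL kanamycin, also containing 100 μg/mL carbenicillin, 50 μM IPTG and 0.2% rhamnose, and pooled colonies were amplicon-sequenced on an Illumina HiSeq 2500.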

Sequence | self-splicing fitness (ln) (30 °C) | self-splicing fitness (ln) (37 °C)
CAAUAGCAAUAUUACGUAGC | -4.08 ± 0.53 | 
AUCGAGCAAUAUUACGCACG | -2.59 ± 0.52 | -2.25 ± 0.56
CGAGAGCAAUAUUACGUGCC | -4.55 ± 1 | 
AUGGAGCAAUAUUACGGAGU | -3.96 ± 0.54 | 
CGUAAGCAAUAUUACGAAGA |  | -1.33 ± 0.59
UGUGAGCAAUAUUACGCGCG |  | -2.55 ± 0.62
UACCAGCAAUAUUACGAUAG | -1.1 ± 0.067 | 0.0475 ± 0.097
CCAGAGCAAUAUUACGAUCC | -3.77 ± 0.52 | 
CGUAAGCAAUAUUACGGUUC | -4.81 ± 0.51 | 
GGGGAGCAAUAUUACGAUAG | -4.34 ± 0.72 | -2.3 ± 1.1
GGAGAGCAAUAUUACGACUG | -4.1 ± 0.51 | 
UGGCAGCAAUAUUACGAAUC |  | -2.12 ± 0.57
CAAUAGCAAUAUUACGCAGC | -4.47 ± 0.72 | -1.08 ± 0.79
GUGAAGCAAUAUUACGCCUC | -1.22 ± 0.25 | -1.09 ± 0.48
UCUUAGCAAUAUUACGCCCC | -3.84 ± 0.73 | -1.18 ± 0.92
GGAGAGCAAUAUUACGUUUG | -4.45 ± 0.73 | 
AUUGAGCAAUAUUACGAAUC |  | -4.88 ± 0.72
CAUUAGCAAUAUUACGAGGU | -3.01 ± 0.27 | -2.66 ± 0.3
CCUAAGCAAUAUUACGGACC |  | -2.41 ± 0.63
GAUGAGCAAUAUUACGACUG |  | -1.88 ± 0.8
UGUGAGCAAUAUUACGUGAU |  | -3.73 ± 0.59
AGGGAGCAAUAUUACGUCAA | -3.37 ± 0.44 | -2.52 ± 0.45
AUGGAGCAAUAUUACGCCAG |  | -1.86 ± 0.69
AAACAGCAAUAUUACGAAGG | -3.85 ± 0.13 | -2.2 ± 0.15

Sequence | self-splicing fitness (ln) (30 °C) | self-splicing fitness (ln) (37 °C)
GGUGAGCAAUAUUACGUCAG | -1.42 ± 0.63 | -2.04 ± 0.51
UAGAAGCAAUAUUACGCCAU |  | -2.83 ± 0.53
GCGGAGCAAUAUUACGCACA | -4.04 ± 1.1 | 
GCUGAGCAAUAUUACGCCGU | -4.79 ± 0.51 | -0.103 ± 0.24
GGGUAGCAAUAUUACGCACC |  | -0.681 ± 1.4
UCUUAGCAAUAUUACGUUCU | -4.12 ± 0.59 | 
GCACAGCAAUAUUACGCCGC | -2.96 ± 0.64 | -2.86 ± 1.1
CGUAAGCAAUAUUACGGUCA | -2.2 ± 0.15 | -0.467 ± 0.12
GAGGAGCAAUAUUACGAGUA | -3.64 ± 1 | 
CAAGAGCAAUAUUACGCUUG | -4.12 ± 1 | 
CGUCAGCAAUAUUACGCGGA | -4.43 ± 0.72 | 
GAUGAGCAAUAUUACGAAGG |  | -2.99 ± 1
AGCUAGCAAUAUUACGUGGC | -4.6 ± 0.51 | 
AGUUAGCAAUAUUACGCAUU | -3.25 ± 0.25 | -0.806 ± 0.17
AUGGAGCAAUAUUACGUGUG | -5.38 ± 0.71 | 
GAUGAGCAAUAUUACGGCCC | -2.12 ± 0.8 | -1 ± 0.92
CCUAAGCAAUAUUACGACGG | -3.49 ± 0.19 | -2.24 ± 0.24
GCUUAGCAAUAUUACGUUGU | -1.5 ± 0.066 | -0.844 ± 0.093
AGGGAGCAAUAUUACGUGGU | -4.64 ± 1 | 
AAGAAGCAAUAUUACGAAUA | -1.86 ± 0.17 | -0.73 ± 0.12
GGUGAGCAAUAUUACGCCCG | -3.04 ± 0.63 | 
UUUUAGCAAUAUUACGGAUC | -1.86 ± 0.53 | -2.02 ± 0.68
CGACAGCAAUAUUACGCAGC | -4.85 ± 0.72 | 
AGGAAGCAAUAUUACGGAAG | -2.98 ± 0.25 | -2.28 ± 0.39

Sequence | self-splicing fitness (ln) (30 °C) | self-splicing fitness (ln) (37 °C)
AUAGAGCAAUAUUACGAGCC | -3.19 ± 0.78 | -2.23 ± 1.1
CAGCAGCAAUAUUACGACCC |  | -1.1 ± 0.92
CUUAAGCAAUAUUACGCCUU | -4.02 ± 0.59 | 
CGGUAGCAAUAUUACGCAUC | -4.61 ± 1 | 
ACAUAGCAAUAUUACGAUCA | -1.71 ± 0.087 | -0.779 ± 0.098
UUCUAGCAAUAUUACGCAUG | -3.42 ± 0.16 | -2.01 ± 0.18
UGAGAGCAAUAUUACGUUUG | -5.06 ± 0.58 | -3.69 ± 0.52
UUGCAGCAAUAUUACGCCCU |  | -1.08 ± 0.58
UCUAAGCAAUAUUACGGUCC | -3.29 ± 0.6 | 
AACAAGCAAUAUUACGGUCC | -1.36 ± 0.063 | -0.282 ± 0.072
UGAGAGCAAUAUUACGGGGU | -4.04 ± 1.1 | 
UACUAGCAAUAUUACGUAAA | -1.66 ± 0.12 | -0.614 ± 0.14
UUCGAGCAAUAUUACGCAGC | -4.03 ± 0.53 | -3.61 ± 1
CGCUAGCAAUAUUACGAAGC |  | -2.16 ± 1.1
GGCGAGCAAUAUUACGCUCG |  | -2.89 ± 0.53
GUCAAGCAAUAUUACGCAUA | -1.58 ± 0.063 | -0.367 ± 0.06
CGGGAGCAAUAUUACGUACA |  | -2.96 ± 0.53
GGCGAGCAAUAUUACGGUAG | -4.89 ± 0.71 | -2.94 ± 0.61
UUAGAGCAAUAUUACGACCA |  | -1.22 ± 0.71
UCUGAGCAAUAUUACGGGUA | -4.41 ± 0.73 | 
CGGGAGCAAUAUUACGCAGU | -4.53 ± 0.59 | 
UCACAGCAAUAUUACGCCUC |  | -2.85 ± 0.61
ACUGAGCAAUAUUACGAACC |  | 0.393 ± 0.83
ACUUAGCAAUAUUACGUGAC | -2.05 ± 0.21 | -2.54 ± 0.29

Sequence | self-splicing fitness (ln) (30 °C) | self-splicing fitness (ln) (37 °C)
AGGCAGCAAUAUUACGCGCG | -0.446 ± 0.12 | -0.358 ± 0.14
GGCGAGCAAUAUUACGCGCC | -3.11 ± 0.55 | 
UAAGAGCAAUAUUACGACUC | -3.7 ± 1.1 | 
CGUGAGCAAUAUUACGAUGC | -0.111 ± 0.43 | -2 ± 0.48
UUGUAGCAAUAUUACGUGUC |  | -3.53 ± 0.52
AGCGAGCAAUAUUACGAAUU | -3.39 ± 1 | 
AAAGAGCAAUAUUACGGUUA | -2.49 ± 0.21 | -2.06 ± 0.18
UUCAAGCAAUAUUACGCCUG | -3.96 ± 0.73 | 
AGAAAGCAAUAUUACGCCAC | -4.72 ± 0.72 | 
GGGCAGCAAUAUUACGCCCA | -2.18 ± 0.48 | -1.26 ± 0.32
CAGUAGCAAUAUUACGUACC | -2.47 ± 0.54 | -0.95 ± 0.73
GGGAAGCAAUAUUACGCGCU | -2.66 ± 0.28 | -0.954 ± 0.27
CGGAAGCAAUAUUACGGAAC |  | -1.36 ± 0.9
AGAUAGCAAUAUUACGCUCC | -1.23 ± 0.56 | 
ACAGAGCAAUAUUACGCGUU | -5.14 ± 1 | 
UUGUAGCAAUAUUACGCGGU | -3.41 ± 0.74 | -1.29 ± 0.71
CCGAAGCAAUAUUACGGACA | -4.47 ± 0.51 | 
AGAGAGCAAUAUUACGUACA | -2.12 ± 0.6 | 0.504 ± 0.58
GUCAAGCAAUAUUACGCCGG | -3.42 ± 0.76 | 
GUGGAGCAAUAUUACGUACA |  | -2.79 ± 0.76
AGGGAGCAAUAUUACGCUGA | -2.81 ± 0.52 | -2.94 ± 0.74
UCAUAGCAAUAUUACGACCC | -1.69 ± 0.76 | -2.72 ± 1.1
GUCUAGCAAUAUUACGAUCA | -0.0149 ± 0.51 | -1.66 ± 0.87

Exported tab-delimited: entries from further up.
Sequence	self-splicing fitness (ln) (30 °C)	self-splicing fitness (ln) (37 °C)
CGGAAGCAAUAUUACGGAAC		-1.36 ± 0.9
AGAUAGCAAUAUUACGCUCC	-1.23 ± 0.56	
ACAGAGCAAUAUUACGCGUU	-5.14 ± 1	
UUGUAGCAAUAUUACGCGGU	-3.41 ± 0.74	-1.29 ± 0.71
